The values that follow come from paper PMC12040169 (PLOS Biology, 2025).

Structures are written as SMILES. Some of the results follow.

In this assay the test system is T1, CTL2-GFP (C. trachomatis L2/434/Bu, GFP-expressing).
T1 construct: L2/434/Bu, GFP-expressing
Set-up: species or system HeLa; Intracellular C. trachomatis growth in HeLa cells, bulk GFP fluorescence relative to DMSO. The following applies: bulk GFP, single well; 28.5 h, 10 µM; inhibitor.
Regarding `COc1ccccc1C(=O)N1CCC[C@@H](N)[C@@H]1c1ccccc1F` [CBK283458], the “% of control remaining” value was 139.229%. Under `O=C1CC(c2cc(Br)ccc2F)c2scc(-c3ccccc3F)c2N1` (stereo not shown) [CBK294440] stands 188.783%; under `CCCN1CCC2CN(CCCC(=O)c3ccc(F)cc3)CCN2C1=O` (stereo not shown) [CBK024882C], 91.3421%; under `O=C1CN(C(=O)NCc2ccc(F)cc2)CCN1` [CBK155869], 100%. Take `O=C(CCn1ccc2ccncc21)NCCc1c[nH]c2ccccc12` [CBK284760]: the “% of control remaining” value was found to be 88.5237%. The figure for `O=S(=O)(c1cccc(C(F)(F)F)c1)N1CCN(Cc2ccc3c(c2)OCO3)CC1` [CBK074594] is 103.453%; for `COc1c(S(=O)(=O)N2CCN(Cc3ccc4c(c3)OCO4)CC2)ccc(Cl)c1Cl` [CBK074423] it is 110.855%; for `CCn1ncc(CN2CCN(C(=O)c3nn(C)cc3C(=O)O)CC2)c1C` [CBK286870] it is 128.675%. Under `CC1CCN(CCNC(=O)CCc2nc3ccc(Cl)cc3[nH]2)CC1` [CBK281599] stands 137.247%; under `O=C(NCCCN1CCOCC1)C1CCCN1S(=O)(=O)c1ccc(Cl)cc1` (stereo not shown) [CBK269944], 135.547%.

As for `CCCC(=O)N1CCC(c2nc3ccc(F)cc3cc2N)CC1` [CBK284655], the “% of control remaining” value turned out to be 139.87%.

For `Cc1cc(=O)[nH]c(SCc2nc3ccccn3c2Br)n1` [CBK296063], the “% of control remaining” value came to 71.8417%. The figure for `O=[N+]([O-])c1ccc(NCCCNS(=O)(=O)c2ccc3ccccc3c2)c(Cl)c1` [CBK262006] is 115.276%.

For the compound `COc1ccccc1CN1CCC(Cc2ccccc2-c2ccccc2)(C(N)=O)CC1` [CBK285719], the “% of control remaining” value came to 130.504%.

Regarding `OC(CN1CCC(O)(c2cccc(C(F)(F)F)c2)CC1)c1ccccc1` (stereo not shown) [CBK286324], the “% of control remaining” value was found to be 95.8167%. Under `COc1ccc(OCC(=O)Nc2ccc3c(c2)nc2n3CCN(Cc3ccccc3)C2)cc1` [CBK266989] stands 153.151%; under `Fc1ccc(-c2cncc(Nc3cccc(C(F)(F)F)c3)n2)c(F)c1` [CBK065763], 192.176%; under `Cn1c(SCc2cccc3ccccc23)nnc1-c1ccc(NC(=O)/C=C/c2ccccc2)cc1` [CBK265034], 116.85%. In the case of `CC1Cc2cc(-c3cncn3CC(=O)NC(C)(C)C)ccc2N1C` (stereo not shown) [CBK281699], the “% of control remaining” value is recorded as 127.789%. Under `O=c1c([N+](=O)[O-])c(O)c2ccccc2n1Cc1ccccc1` [CBK291182] stands 149.393%; under `C=C(C)Cn1c(-c2ccc(N)cc2)nc2ccccc21` [CBK287581], 120.777%; under `C[C@@H](Nc1cncc(-c2ccccc2CO)n1)c1ccccc1` [CBK065543], 150.522%. For `COc1nc2ccn(CC(O)CO)c(=O)c2cc1C#N` (stereo not shown) [CBK307251], the “% of control remaining” value was 114.695%. The figure for `Cc1ccc(C(=O)N2CCC(c3nc4ccccc4s3)CC2)cc1NS(C)(=O)=O` [CBK254629] is 147.378%; for `Cc1cc(C)n(-c2ccnc(NCCc3cccnc3)n2)n1` [CBK288615] it is 112.376%. On to `CC1=C[C@@H](CO)[C@H](C(C)C)C[C@H]1CC(=O)N1CCN(CCO)CC1` [CBK289217], for which the “% of control remaining” value is 135.193%. Under `O=C(Cn1cc(-c2ccc(CN3CCCCC3)cc2)nn1)NCc1ccc(C2CCC2)cc1` [CBK167547] stands 106.328%.

Turning to `c1cc(-c2cnc(N3CCOCC3)c3nccn23)c2cccnc2c1` [CBK091270], the “% of control remaining” value is recorded as 105.512%. For the compound `CNCc1cc(Br)c(OCC(=O)Nc2ccccc2OC)c(OC)c1` [CBK107772], the “% of control remaining” value amounted to 110.124%. The figure for `O=C(Nc1cc(Cl)ccc1C(=O)NC1CCC(O)CC1)c1cccs1` (stereo not shown) [CBK306186] is 156.571%. As for `Cc1c(C(=O)Nc2ccc(Cl)cc2)sc2c1C(c1cccnc1)CC(=O)N2` (stereo not shown) [CBK288233], the “% of control remaining” value amounted to 45.701%. In the case of `CCOC(=O)Nc1ccc2c(c1)N(C(=O)CN1CCOCC1)c1ccccc1CC2` [CBK261286C], the “% of control remaining” value is 95.6924%. Under `Cc1nn(CC(=O)OC2CCCCC2)c(=O)c2cc3ccsc3n12` [CBK284058] stands 139.256%; under `CCc1nn2c(=O)cc(CNc3ccccc3CN(C)C(C)=O)nc2s1` [CBK305604], 103.77%; under `Cn1c(=O)c2c(nc(Nc3ccc(Cl)cc3Cl)n2CC(=O)O)n(C)c1=O` [CBK286792], 128.509%.

In the case of `CCn1cc(CN2CCN(C(=O)c3csc(C(C)C)c3)CC2)cn1` [CBK282044], the “% of control remaining” value was 129.975%. The figure for `C=CCNc1nccnc1-c1cc(OC)c(OC)c(OC)c1` [CBK036872] is 96.877%; for `O=C(Nc1cc(Cl)ccc1C(=O)O)c1ccc2c(c1)C(=O)N(Cc1cccnc1)C2=O` [CBK266455] it is 146.645%. As for `CCOC(=O)N(C)c1c(CC)nc2ccc(C(=O)Nc3cc(-c4ccccc4)ccc3OC)cn12` [CBK145478], the “% of control remaining” value was 141.287%. The figure for `CSc1nc(NC(=O)Cc2c[nH]c3ccccc23)cc(N2CCNCC2)n1` [CBK050265T] is 100%. Take `OCC1CCN(Cc2ccc(OC3CCCC3)cc2)C1` (stereo not shown) [CBK282929]: the “% of control remaining” value was determined as 84.5197%. With `O=C1CN(S(=O)(=O)c2ccc(NS(=O)(=O)c3ccc4ccccc4c3)cc2)CC(=O)N1` [CBK262513], the “% of control remaining” value is 122.42%. The figure for `Cc1ccc2c(c1)C(c1c[nH]c3ccccc13)(c1c[nH]c3ccccc13)C(=O)N2C` [CBK266401] is 190.239%; for `O=C(NCc1ccccc1OC1CCNC1)c1ccc(-c2cccc(C(F)(F)F)c2)o1` (stereo not shown) [CBK034151T] it is 102.468%; for `Cc1cc(N2CCC(N3CCN(C)CC3)CC2)nc(N)n1` [CBK167964] it is 117.588%.

For the compound `O=S(=O)(Nc1ccc(N2CCOCC2)cc1)c1cccc(OC(F)(F)F)c1` [CBK296759], the “% of control remaining” value was 125.242%. In the case of `Cc1cc(C)n(CC2CCCCN2Cc2ccccn2)n1` (stereo not shown) [CBK304853], the “% of control remaining” value was 117.924%.

As to `O=C(NC1CCCC1)c1ccc(-n2ccnc2)c(-n2cccc2)c1` [CBK285368], the “% of control remaining” value is 118.893%.

As to `CCOC(=O)[C@H]1CC[C@]2(CC1)CN(C)C(=O)c1ccccc1O2` [CBK284848], the “% of control remaining” value was 93.4923%. With `Cc1cccc(NCC(O)Cn2c3ccc(Br)cc3c3cc(Br)ccc32)c1` (stereo not shown) [CBK261419], the “% of control remaining” value was determined as 100.289%.

Take `COc1ccc([C@@H](O)[C@H]2CCCNC2)cc1` [CBK282298]: the “% of control remaining” value worked out at 139.141%. `COCc1nnc(Sc2nccnc2NC(C)C)s1` [CBK115204]: the “% of control remaining” value was determined as 128.23%. With `CC(C)Cn1c(=O)c2c(nc3n2CCS3)n(C)c1=O` [CBK307109], the “% of control remaining” value worked out at 123.555%.

On to `O[C@H]1[C@H](NCc2ccccn2)[C@H]2CO[C@H](O2)[C@@H]1N1CCC(Cc2ccccc2)CC1` [CBK288814], for which the “% of control remaining” value was 121.583%. Regarding `COC(=O)c1ccc(OCCn2nc(C)c(C)c(C#N)c2=O)cc1` [CBK305676], the “% of control remaining” value amounted to 144.375%. The figure for `Cc1cc(C)n(-c2nc3cc(Cl)ccc3nc2Nc2ccc3c(c2)OCO3)n1` [CBK268380] is 142.557%. Take `COc1ccc(C2C(C(C)=O)=C(O)C(=O)N2CCC(=O)O)cc1` (stereo not shown) [CBK263763]: the “% of control remaining” value stood at 110.458%. Under `O=C(NC1CCNCC1)c1cc2ccccc2[nH]1` [CBK168609] stands 124.481%. On to `O=C(CSc1ncccn1)N/N=C/c1ccncc1` [CBK262401], for which the “% of control remaining” value was 117.959%.

Take `OCCn1ncc2c(NCc3cccc(Cn4ccnc4)c3)ncnc21` [CBK304184]: the “% of control remaining” value turned out to be 46.0785%.

On to `Cc1cc(C)cc(N(CCC#N)C(=O)CSc2nnc[nH]2)c1` [CBK296955], for which the “% of control remaining” value amounted to 118.628%.

Consider `Cn1cc(CN2CCCN(C(=O)c3cc4ccccc4[nH]3)CC2)cn1` [CBK304920], for which the “% of control remaining” value is 69.8061%.

Turning to `CCNc1cc(-c2ccc(OC)cc2)ncn1` [CBK090883], the “% of control remaining” value came out at 172.478%. In the case of `O=c1oc2ccccc2c(NCCN2CCCCC2)c1[N+](=O)[O-]` [CBK218805], the “% of control remaining” value amounted to 112.262%. Regarding `O=C(Nc1cccc2ccccc12)N1CCC(n2c(=O)[nH]c3ccccc32)CC1` [CBK149858], the “% of control remaining” value was 96.6412%. `CCCC(=O)Nc1sc(C)c(C)c1C(=O)Nc1ccccc1OC` [CBK262455]: the “% of control remaining” value came to 89.9053%. The figure for `CC(=O)Nc1nc2ccc(S(=O)(=O)N3CCCC3)cc2s1` [CBK287604] is 135.649%; for `[O-][S+]1c2ccccc2Oc2ccccc21` [CBK027634] it is 136.809%; for `Cc1ccc(NC(=O)NC(=O)C2CCN(CCc3ccc(F)cc3)CC2)cc1Cl` [CBK035047] it is 128.616%. The figure for `CC1(C)NC(=O)N(CC(O)CN2CCCC2)C1=O` (stereo not shown) [CBK264558] is 112.43%. Under `Fc1cccc(Cl)c1CN1CNC(=S)NC1` [CBK006480] stands 150.953%; under `CC(C)c1ccc(OCCN2CCNCC2)cc1` [CBK266024C], 121.312%; under `CCCCC(=O)Nc1ccc(C(=O)N2CCN(C)CC2)cc1` [CBK304662], 113.606%. Regarding `O=C1NC(=O)C(CC(=O)N2CCN(Cc3nc4ccccc4s3)CC2)S1` (stereo not shown) [CBK295654], the “% of control remaining” value is 138.268%.

In the case of `Cc1ccccc1NCC(=O)N/N=C\c1cc(Br)c(O)c(Br)c1` [CBK262120], the “% of control remaining” value is given as 105.59%. As for `Cc1cccc(OCCNC(=O)CSc2n[nH]c(=O)n2C2CC2)c1` [CBK295599], the “% of control remaining” value was 120.677%. The figure for `CN(C)Cc1ccccc1-n1ncc(-c2ccc(Br)cc2F)n1` [CBK112924] is 121.53%.

With `CCc1c(C(=O)Nc2ccc3nc(C)cn3c2)cnc2cc(O)nn12` [CBK291178], the “% of control remaining” value is 115.006%.

Take `COc1ccc2occ(C(=O)c3ccc(N)cc3)c2c1` [CBK111303]: the “% of control remaining” value was determined as 117.084%.
